For this experiment, the target named is T1, Plakophilin-1 (human (endogenous in SK-MES-1)) (UniProt Q13835).
T1 sequence: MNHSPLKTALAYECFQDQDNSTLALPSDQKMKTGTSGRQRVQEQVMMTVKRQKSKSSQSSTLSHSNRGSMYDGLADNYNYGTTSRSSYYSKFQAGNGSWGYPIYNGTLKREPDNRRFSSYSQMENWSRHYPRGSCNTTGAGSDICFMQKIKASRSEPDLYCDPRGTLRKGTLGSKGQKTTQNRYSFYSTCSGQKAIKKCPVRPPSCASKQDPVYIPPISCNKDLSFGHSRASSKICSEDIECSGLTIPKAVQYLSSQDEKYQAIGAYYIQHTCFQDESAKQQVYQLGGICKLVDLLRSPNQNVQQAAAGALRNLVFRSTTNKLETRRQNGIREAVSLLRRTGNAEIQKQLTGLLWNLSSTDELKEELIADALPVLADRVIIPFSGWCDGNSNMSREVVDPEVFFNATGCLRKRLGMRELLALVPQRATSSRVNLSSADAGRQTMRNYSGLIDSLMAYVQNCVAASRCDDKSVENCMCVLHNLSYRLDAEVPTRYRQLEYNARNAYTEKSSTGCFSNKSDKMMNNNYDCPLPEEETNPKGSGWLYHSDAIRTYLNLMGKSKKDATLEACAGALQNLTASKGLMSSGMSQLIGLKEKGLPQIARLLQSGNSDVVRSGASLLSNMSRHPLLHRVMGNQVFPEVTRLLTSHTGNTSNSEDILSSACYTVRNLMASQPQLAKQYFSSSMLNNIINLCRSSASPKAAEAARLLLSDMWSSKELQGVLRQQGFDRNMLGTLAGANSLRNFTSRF
The experiment in a line: co-IP; independent co-IP of PKP1 and TRIM21 in SK-MES-1 cell line, immunoblot; which protein was precipitated is not told. A general note: A western blot detects proteins with antibodies after separation by electrophoresis.

Amino acid sequences for entries named in this document (tags omitted).
UniProt P19474: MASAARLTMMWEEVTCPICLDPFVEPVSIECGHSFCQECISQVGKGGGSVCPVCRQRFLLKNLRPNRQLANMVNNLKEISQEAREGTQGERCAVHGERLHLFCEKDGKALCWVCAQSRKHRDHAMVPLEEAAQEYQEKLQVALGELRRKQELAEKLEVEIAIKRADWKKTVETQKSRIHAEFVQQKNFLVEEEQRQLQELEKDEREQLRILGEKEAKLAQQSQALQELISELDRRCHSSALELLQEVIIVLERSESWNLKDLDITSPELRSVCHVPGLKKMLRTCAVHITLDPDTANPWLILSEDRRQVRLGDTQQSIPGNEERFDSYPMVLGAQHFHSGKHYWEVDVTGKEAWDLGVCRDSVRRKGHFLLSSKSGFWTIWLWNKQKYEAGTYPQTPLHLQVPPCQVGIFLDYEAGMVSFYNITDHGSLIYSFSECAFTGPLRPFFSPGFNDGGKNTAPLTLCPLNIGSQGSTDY

No constants are given. Whether binding was seen depends on the method and setting. In cells and extracts the contact can be indirect. Some binding calls cover weakened binding; strength is not graded here.

Regarding TRIM21 (from UniProt P19474 1-475), the binding entry is on record as “binds”.

The values are drawn from PMC12403285.
